For test [1], the target named is T1, SF3A2 (endogenous, THP-1 cells) (human (endogenous in THP-1)) (UniProt Q15428).
T1 sequence: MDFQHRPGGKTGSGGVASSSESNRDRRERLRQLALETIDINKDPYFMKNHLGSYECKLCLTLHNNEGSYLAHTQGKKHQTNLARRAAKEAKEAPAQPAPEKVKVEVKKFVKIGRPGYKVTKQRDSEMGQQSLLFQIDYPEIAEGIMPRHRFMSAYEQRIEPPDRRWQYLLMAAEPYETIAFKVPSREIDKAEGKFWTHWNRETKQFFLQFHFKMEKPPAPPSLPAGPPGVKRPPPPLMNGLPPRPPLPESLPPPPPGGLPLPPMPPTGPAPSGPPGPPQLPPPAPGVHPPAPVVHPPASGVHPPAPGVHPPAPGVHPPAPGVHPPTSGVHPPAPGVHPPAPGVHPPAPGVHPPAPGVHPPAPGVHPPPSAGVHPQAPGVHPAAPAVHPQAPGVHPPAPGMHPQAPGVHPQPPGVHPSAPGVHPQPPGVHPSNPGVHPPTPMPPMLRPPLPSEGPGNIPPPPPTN
The test can be described thus: co-IP; lysates of THP-1 cells, resting or treated with LPS 4 h then Nig 1 h, immunoprecipitated with anti-SF3A2 antibody.

Chains of the proteins cited; added tags and fusions are not shown.
UniProt Q96P20: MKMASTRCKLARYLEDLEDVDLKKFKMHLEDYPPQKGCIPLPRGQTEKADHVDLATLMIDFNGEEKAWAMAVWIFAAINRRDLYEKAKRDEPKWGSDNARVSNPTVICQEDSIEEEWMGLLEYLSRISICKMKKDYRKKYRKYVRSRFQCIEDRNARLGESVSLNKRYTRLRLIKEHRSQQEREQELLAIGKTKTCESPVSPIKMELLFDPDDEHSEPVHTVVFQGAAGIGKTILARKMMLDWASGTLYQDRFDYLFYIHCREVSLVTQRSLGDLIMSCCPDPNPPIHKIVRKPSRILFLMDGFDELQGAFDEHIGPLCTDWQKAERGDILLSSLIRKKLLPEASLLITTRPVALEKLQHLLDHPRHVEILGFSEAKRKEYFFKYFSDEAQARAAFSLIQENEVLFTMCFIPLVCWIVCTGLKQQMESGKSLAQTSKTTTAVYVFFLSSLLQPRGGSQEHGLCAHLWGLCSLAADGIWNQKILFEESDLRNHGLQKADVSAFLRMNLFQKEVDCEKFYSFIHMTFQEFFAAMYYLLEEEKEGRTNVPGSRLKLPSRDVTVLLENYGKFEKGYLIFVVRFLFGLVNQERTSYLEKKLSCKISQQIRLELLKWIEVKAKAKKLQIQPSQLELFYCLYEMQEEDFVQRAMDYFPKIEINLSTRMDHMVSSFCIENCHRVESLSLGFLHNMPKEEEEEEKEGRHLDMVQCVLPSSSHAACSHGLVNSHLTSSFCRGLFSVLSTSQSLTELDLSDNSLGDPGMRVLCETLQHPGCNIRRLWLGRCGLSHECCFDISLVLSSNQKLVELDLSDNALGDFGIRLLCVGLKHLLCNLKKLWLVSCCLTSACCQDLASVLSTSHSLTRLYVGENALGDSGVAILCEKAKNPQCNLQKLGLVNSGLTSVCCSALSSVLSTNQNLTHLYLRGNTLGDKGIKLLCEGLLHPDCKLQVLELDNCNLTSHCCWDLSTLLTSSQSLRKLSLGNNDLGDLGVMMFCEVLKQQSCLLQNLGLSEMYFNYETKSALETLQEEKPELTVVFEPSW
UniProt P46934: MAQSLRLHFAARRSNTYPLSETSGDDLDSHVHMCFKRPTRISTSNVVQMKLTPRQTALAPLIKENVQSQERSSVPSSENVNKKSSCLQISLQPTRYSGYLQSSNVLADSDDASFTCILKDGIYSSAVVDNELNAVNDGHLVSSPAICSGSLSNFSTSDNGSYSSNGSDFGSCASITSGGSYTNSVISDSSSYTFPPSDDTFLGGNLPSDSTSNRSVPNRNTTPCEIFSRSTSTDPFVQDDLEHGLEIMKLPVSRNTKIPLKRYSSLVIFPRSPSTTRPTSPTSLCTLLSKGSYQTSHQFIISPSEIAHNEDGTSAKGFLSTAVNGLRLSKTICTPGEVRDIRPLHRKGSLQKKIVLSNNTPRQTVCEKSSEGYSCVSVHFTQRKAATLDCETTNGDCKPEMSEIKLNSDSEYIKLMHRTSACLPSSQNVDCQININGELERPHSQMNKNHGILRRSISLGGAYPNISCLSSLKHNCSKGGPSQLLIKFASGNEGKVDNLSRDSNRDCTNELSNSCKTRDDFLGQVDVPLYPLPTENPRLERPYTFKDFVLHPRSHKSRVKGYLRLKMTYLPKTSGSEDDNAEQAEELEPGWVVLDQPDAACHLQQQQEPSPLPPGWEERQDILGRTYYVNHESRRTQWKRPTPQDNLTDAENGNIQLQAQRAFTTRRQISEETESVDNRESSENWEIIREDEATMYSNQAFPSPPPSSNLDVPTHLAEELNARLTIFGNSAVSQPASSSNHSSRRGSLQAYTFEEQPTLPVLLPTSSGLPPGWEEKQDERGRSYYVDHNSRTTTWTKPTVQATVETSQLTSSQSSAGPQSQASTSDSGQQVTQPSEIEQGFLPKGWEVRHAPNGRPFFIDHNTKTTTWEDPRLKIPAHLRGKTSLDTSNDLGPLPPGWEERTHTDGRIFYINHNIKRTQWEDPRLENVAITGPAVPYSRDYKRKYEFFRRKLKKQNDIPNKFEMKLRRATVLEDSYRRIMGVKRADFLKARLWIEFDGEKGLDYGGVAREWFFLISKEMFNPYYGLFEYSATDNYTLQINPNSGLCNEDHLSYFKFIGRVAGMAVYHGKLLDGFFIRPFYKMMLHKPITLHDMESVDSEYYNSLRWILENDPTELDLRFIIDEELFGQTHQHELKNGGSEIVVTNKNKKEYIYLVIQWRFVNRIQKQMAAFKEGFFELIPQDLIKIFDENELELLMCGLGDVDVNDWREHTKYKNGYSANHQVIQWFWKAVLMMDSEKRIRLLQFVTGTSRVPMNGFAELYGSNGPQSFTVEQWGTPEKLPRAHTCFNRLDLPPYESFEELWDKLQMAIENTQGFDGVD

The next test deals with T2, Myc-SF3A2 (UniProt Q15428).
T2 sequence: T1 sequence
The test can be described thus: co-IP; HEK293T cells transfected with Myc-SF3A2 and HA-UB, with empty vector or Flag-NEDD4; lysates immunoprecipitated (legend names an anti-RIP1 antibody), with or without LPS and Nig.

Results are given in words; binding and its absence hold for the method and conditions named. Binding seen in cells or lysates may run through a third protein. Some binding calls cover weakened binding; strength is not graded here. For some assays here: Where a sequence is shown, tags or fusion partners need not be part of it.

For “NLRP3 (endogenous, THP-1 cells) (from UniProt Q96P20 1-1036)”, in test [1], the binding entry was “binds”.

Take “Flag-NEDD4 (from UniProt P46934 1-1319) (enzyme)”: in the test with Myc-SF3A2, the binding result is “binds”.

Values taken from paper PMC9896697.
